Values from PubChem BioAssay AID504764 (Drosophila RNAi Screening Center, 2011).

Purpose: 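Knock-downs that raise or lower a Notch target reporter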 (primary screen)
System: Drosophila Kc167 cells
Knock-down reagent: long dsRNA against Drosophila genes
Duration: about 5 days (4 days dsRNA, then 24 h after transfection)
Conditions: transfection of constitutively active membrane-tethered Notch lacking the extracellular domain, read 24 h later
Measurement: 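Light from a Notch-responsive E(spl)m3 luciferase reporter under active Notch, with control-promoter and no-Notch reporter wells to normalise; raw counts from paired wells a and b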
Scale: induced reporter light, run 1, well a and induced reporter light, run 1, well b: higher = more light from the Notch target reporter with active Notch; control promoter light, run 1, well a and control promoter light, run 1, well b: higher = more light from the viral control promoter (cell number, transfection, viability); uninduced reporter light, run 1, well a: higher = more light from the Notch target reporter without active Notch
Call rule: 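Hit if the duplicate-averaged log2 ratio of induced to control-promoter light gives a plate-wise z beyond ±2, or induced to uninduced beyond ±1.8; weak-control or discordant-duplicate wells dropped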
Meaning of the calls: active = modifier hit (raised or lowered Notch signal); inactive = not a hit
The deposit covers about 22,000 reagents; below is an unselected part of those with a known target gene and a result. Over the whole deposit, 403 (1.9%) got an active call. 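Unnormalised raw counts per well; ratio z-scores behind the hit calls and whether each hit raises or lowers signal are not deposited.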 Unmarked entries are inactive. Reagents against one gene are numbered here. Not given: the amount of reagent.

Target gene | reagent no. | induced reporter light, run 1, well a | induced reporter light, run 1, well b | control promoter light, run 1, well a | control promoter light, run 1, well b | uninduced reporter light, run 1, well a
CG32572 | 1 | 80815 | 98240 | 88685 | 64145 | 9235
CG32572 | 2 | 97015 | 81965 | 92460 | 78575 | 11015
EloC | 1 | 68585 | 65115 | 83755 | 80100 | 5888
Dcps | 1 | 1.21e5 | 1.14e5 | 89035 | 86695 | 10500
AOX3 | 1 | 1.53e5 | 1.63e5 | 1.24e5 | 93700 | 10335
pgc | 1 | 20950 | 31715 | 41775 | 39385 | 3120
CG14015 | 1 | 1.96e5 | 1.96e5 | 2.39e5 | 2.45e5 | 11790
sona | 1 | 1.88e5 | 1.48e5 | 1.28e5 | 1.32e5 | 12445
sona | 2 | 92205 | 83895 | 47390 | 49840 | 6365
sona | 3 | 1.90e5 | 1.71e5 | 1.65e5 | 1.39e5 | 10982

The list goes on (2 carried over from the part before).
Target gene | reagent no. | induced reporter light, run 1, well a | induced reporter light, run 1, well b | control promoter light, run 1, well a | control promoter light, run 1, well b | uninduced reporter light, run 1, well a
sona | 2 | 92205 | 83895 | 47390 | 49840 | 6365
sona | 3 | 1.90e5 | 1.71e5 | 1.65e5 | 1.39e5 | 10982
CG1529 | 1 | 87670 | 1.05e5 | 1.20e5 | 1.21e5 | 10660
Mal-A8 | 1 | 2.03e5 | 2.19e5 | 2.28e5 | 2.11e5 | 17055
Axs | 1 | 1.00e5 | 1.03e5 | 1.01e5 | 92100 | 11385
Lrch | 1 | 2.34e5 | 2.56e5 | 2.64e5 | 2.68e5 | 21360
ouib | 1 | 90090 | 92135 | 73330 | 60685 | 6030
Ir47a | 1 | 1.78e5 | 2.31e5 | 2.84e5 | 2.91e5 | 19585
CG34382 | 1 | 1.41e5 | 1.57e5 | 2.12e5 | 2.24e5 | 12340
CG34382 | 2 | 2.34e5 | 1.77e5 | 3.38e5 | 2.37e5 | 9515
CG34382 | 3 | 1.80e5 | 1.10e5 | 1.87e5 | 1.86e5 | 9700
NimC1 | 1 | 1.10e5 | 1.20e5 | 1.14e5 | 1.28e5 | 9765
